# Experimental data from patent US6025466A, “Cyclic hepta-peptide derivative from colonial ascidians, Lissoclinum sp” (Pharma Mar, s.a., priority 1996, dated 2000).
# At least one peptide structure holds a part that was inferred or is arguable (an end, a ring closure or a residue). Numbered stars: 1 amine (or outer) side, 2 acyl side, 3 side chain; on linkers, the order of the positions; unused ones are H or OH. Square brackets hold non-standard residues; d marks the D form. Peptide text beside a SMILES is read from it. * marks the point of attachment. X1 = O=C(C1CSC([C@H](Cc2ccccc2)N[*:1])=N1)[*:2]; Allyl(1,1-Me2) = C=CC(C)(C)*
# How the values were obtained:
# Assay type in all cases: cell-based
# [1] = tested on: HT-29 (monolayer culture of a human colon carcinoma); test: Antitumor activity screening, HT-29 cell growth (Crystal Violet)
# [2] = tested on: A-549 (monolayer culture of a human lung carcinoma); test: Antitumor activity screening, A-549 cell growth (Crystal Violet)
# [3] = tested on: P-388 (suspension culture of a lymphoid neoplasm from DBA-2 mouse); test: Antitumor activity screening, P-388 cell growth
# [4] = tested on: MEL-28 (monolayer culture of a human melanoma); test: Antitumor activity screening, MEL-28 cell growth (Crystal Violet)
structure (smiles),measurement,setting,value
"C=CC(C)(C)OC[C@@H]1NC(=O)[C@H]([C@@H](C)OC(C)(C)C=C)NC(=O)C2CSC(=N2)[C@H](Cc2ccccc2)NC(=O)[C@@H]2CCCN2C(=O)[C@H](C)NC(=O)[C@H]([C@@H](C)CC)NC1=O (some centres unmarked) [Trunkamide A, trunkamide A] (cyclo(AP[X1]T(Allyl(1,1-Me2))S(Allyl(1,1-Me2))I))",Antitumor Activity IC50,"[1]; HT-29 cells, three days of incubation, approximate IC50",0.5 µg/mL
same,antitumor activity against cell line (in words),[1]; HT-29 human colon carcinoma,active
same,Antitumor Activity IC50,"[2]; A-549 cells, three days of incubation, approximate IC50",0.5 µg/mL
same,antitumor activity against cell line (in words),[2]; A-549 human lung carcinoma,active
same,Antitumor Activity IC50,"[3]; P-388 cells, three days of incubation, approximate IC50",0.5 µg/mL
same,antitumor activity against cell line (in words),[3]; P-388 mouse lymphoma,active
same,Antitumor Activity IC50,"[4]; MEL-28 cells, three days of incubation, approximate IC50",1.0 µg/mL
same,antitumor activity against cell line (in words),[4]; MEL-28 human melanoma,active
